The target of experiment [1] is High mobility group box 1 (HMGB1), endogenous in human THP1 cell line-derived macrophages (human (endogenous in THP1 cell line-derived macrophages)) (UniProt P09429). The experiment is described as follows: co-IP; cell lysates (Pierce IP lysis buffer, protease inhibitors) incubated with anti-HMGB1 antibody or control IgG and Protein A/G agarose overnight at 4 °C, washed three times with PBS, immunoblot for HMGB1 and RAGE; also the reverse with anti-RAGE antibody (Fig. 5B). In general terms: A western blot detects proteins with antibodies after separation by electrophoresis.

Sequences of proteins named here, by UniProt entry; tags and fusion partners are left off. Residues count along the entry.
UniProt P09429: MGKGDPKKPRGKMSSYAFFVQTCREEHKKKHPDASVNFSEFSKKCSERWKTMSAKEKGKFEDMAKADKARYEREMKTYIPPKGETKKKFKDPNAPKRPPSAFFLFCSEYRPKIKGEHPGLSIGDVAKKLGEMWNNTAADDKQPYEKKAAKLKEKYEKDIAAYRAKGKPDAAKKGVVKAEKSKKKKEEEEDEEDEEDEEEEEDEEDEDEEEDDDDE
UniProt P63158: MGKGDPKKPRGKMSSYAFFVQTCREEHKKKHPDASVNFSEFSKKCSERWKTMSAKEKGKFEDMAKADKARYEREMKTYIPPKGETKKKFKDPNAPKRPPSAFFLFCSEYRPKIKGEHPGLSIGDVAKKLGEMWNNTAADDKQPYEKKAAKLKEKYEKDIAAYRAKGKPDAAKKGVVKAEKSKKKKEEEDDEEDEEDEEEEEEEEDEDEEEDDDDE
UniProt Q15109, residues 23-404: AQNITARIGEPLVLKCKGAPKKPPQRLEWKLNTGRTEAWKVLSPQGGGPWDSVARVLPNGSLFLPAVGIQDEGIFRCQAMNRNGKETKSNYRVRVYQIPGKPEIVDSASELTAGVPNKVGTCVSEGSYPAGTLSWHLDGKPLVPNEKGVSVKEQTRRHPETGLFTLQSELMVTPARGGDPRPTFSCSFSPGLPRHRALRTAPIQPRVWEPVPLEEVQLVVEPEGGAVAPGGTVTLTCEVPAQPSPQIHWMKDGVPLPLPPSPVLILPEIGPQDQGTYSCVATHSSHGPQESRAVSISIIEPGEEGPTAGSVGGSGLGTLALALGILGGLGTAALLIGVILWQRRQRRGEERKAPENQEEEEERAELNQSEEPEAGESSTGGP
UniProt Q62151, residues 23-402: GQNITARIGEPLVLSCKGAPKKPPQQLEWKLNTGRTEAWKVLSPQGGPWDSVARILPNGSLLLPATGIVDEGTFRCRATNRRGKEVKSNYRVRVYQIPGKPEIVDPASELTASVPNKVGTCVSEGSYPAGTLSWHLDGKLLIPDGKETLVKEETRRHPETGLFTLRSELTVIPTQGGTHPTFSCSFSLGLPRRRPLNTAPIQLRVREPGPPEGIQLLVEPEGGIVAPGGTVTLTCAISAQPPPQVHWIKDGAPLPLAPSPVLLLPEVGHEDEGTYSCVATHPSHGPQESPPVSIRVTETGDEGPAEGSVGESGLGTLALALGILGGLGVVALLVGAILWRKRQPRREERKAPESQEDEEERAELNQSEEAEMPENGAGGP

Experiment [2] deals with High mobility group box 1 (HMGB1), endogenous in mouse RAW264.7 macrophages (mouse (endogenous in RAW264.7)) (UniProt P63158). The description is as above.

No constants are given. Whether binding was seen depends on the method and setting. Binding seen in cells or lysates may run through a third protein. Some binding calls cover weakened binding; strength is not graded here.

With “Receptor for advanced glycation end products (RAGE), endogenous in human THP1 cell line-derived macrophages (from UniProt Q15109 23-404)”, in experiment [1], the binding result is recorded as “binds”.

In the case of “Receptor for advanced glycation end products (RAGE), endogenous in mouse RAW264.7 macrophages (from UniProt Q62151 23-402)”, the binding entry in experiment [2] is listed as “binds”.

The record behind these values is PMC8862393.
